According to US20040077687A1, “Thiazolmines and their use as tgf-beta inhibitors” (priority 2003, published 2004):
Some of these results come from one statement about several compounds together.

Target: T1, kinase Alk5 receptor (Homo sapiens, UniProt P36897)
T1 construct: The protein (amino acids 162 to 503) was 6-His tagged in C-terminus; 6-His (C); made in house; host or cells: baculovirus/Sf9 insect cells
T1 sequence (P36897 162-503): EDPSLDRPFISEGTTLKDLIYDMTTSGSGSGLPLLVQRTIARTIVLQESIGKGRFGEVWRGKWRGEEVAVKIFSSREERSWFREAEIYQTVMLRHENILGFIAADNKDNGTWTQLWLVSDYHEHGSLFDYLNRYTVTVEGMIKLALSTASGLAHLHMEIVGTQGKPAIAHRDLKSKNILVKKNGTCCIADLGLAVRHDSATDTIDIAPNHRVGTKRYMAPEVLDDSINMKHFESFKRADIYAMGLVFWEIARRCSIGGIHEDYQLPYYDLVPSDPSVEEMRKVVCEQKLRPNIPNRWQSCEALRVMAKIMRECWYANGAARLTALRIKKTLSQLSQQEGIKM
Assay: Assay 2: Alk5 kinase domain autophosphorylation
Format: biochemical
Settings: 3 μM ATP, 15 minutes at 37° C.

In the case of `Nc1nc(-c2ccccn2)c(-c2ccnc(-c3ccc(Cl)cc3)c2)s1` [Example 1, 5-[2-(4-Chlorophenyl)pyridin-4-yl]-4-pyridin-2-yl-1,3-thiazol-2-amine], the IC50 is reported as at most 1000 nM.

For `COc1ccc(-c2cc(-c3sc(N)nc3-c3ccccn3)ccn2)cc1` [Example 2, 5-[2-(4-Methoxyphenyl)pyridin-4-yl]-4-pyridin-2-yl-1,3-thiazol-2-amine], the IC50 was at most 1000 nM.

With `Nc1nc(-c2ccccn2)c(-c2ccnc(-c3ccc(F)cc3)c2)s1` [Example 3, 5-[2-(4-Fluorophenyl)pyridin-4-yl]-4-pyridin-2-yl-1,3-thiazol-2-amine] the IC50 was at most 1000 nM.

In the case of `CCc1ccc(-c2cc(-c3sc(N)nc3-c3ccccn3)ccn2)cc1` [Example 4, 5-[2-(4-Ethylphenyl)pyridin-4-yl]-4-pyridin-2-yl-1,3-thiazol-2-amine], the IC50 is reported as at most 1000 nM.

Work on `CCOc1ccc(-c2cc(-c3sc(N)nc3-c3ccccn3)ccn2)cc1` [Example 5, 5-[2-(4-Ethoxyphenyl)pyridin-4-yl]-4-pyridin-2-yl-1,3-thiazol-2-amine] yielded an IC50 of at most 1000 nM.

For `Nc1nc(-c2ccccn2)c(-c2ccnc(-c3ccsc3)c2)s1` [Example 6, 5-[2-(Thiophen-3-yl)pyridin-4-yl]-4-pyridin-2-yl-1,3-thiazol-2-amine], the IC50 was at most 1000 nM.
